# Results from one PubChem assay

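Genome-wide siRNA knockdown in TC32 Ewing sarcoma cells, comparing luciferase light from an NR0B1-promoter reporter with a CMV-promoter reporter 48 hours after transfection. Each siRNA was applied at 20 nM. A z-score of the log NR0B1-over-CMV signal, less the median of siRNAs with the same seed; more negative means a stronger specific loss of the NR0B1 reporter.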

The strongest results of the screen are mostly left out here. Sequences are the guide (antisense) strand, without overhang.

siRNA	gene	seed-corrected z-score
UCUUCUUAGGCAAAUAGGC	TMEM120A	-1.235
AGAAGAGUAAGGUCUUUCU	KRTAP1-3	0.02745
UCAGCACCCACUUUGGGUG	GZMM	1.445
UCAGGAGAUAGCACUCAGU	OR6N1	-0.2461
UCUUUGAUUUCCAUGACCC	TMEM95	0.7769
UCAGUAGCUACUCUGUGGG	CD2	-1.454
UCACGUAGUAUACACCUGC	G6PC	-0.3468
UACUGUGAUAGAACAGGUG	NOP2	-0.1438
UUCGUUCCUUUUGCACUCC	APIP	-0.3675
UGUUUUACAGAUAUGACCU	RPL23AP74	-1.018
UCAUGUACCACCAUGAAGA	WNT2	0.1931
UUUCGGGAAAUGUCAGGGC	FOXJ2	-0.384
AAAUUUACCAUCCGACCUG	MFHAS1	0.3413
ACAGUAAUUACACUCAUAG	ZNF189	0.02814
UUUCCAUCCUUGUCGGUGC	GRIP2	-0.1147
UUCUUGCCCAUUAAGGAAC	C1orf43	-0.3223
UAACUGUCUGUUUCGGCGG	MRPL3	0.4253
AACUGAAUUUCCAUAGUAC	LINC01120	-0.5252
AGCGAUCAAAUUGUAAUCC	CASC15	-0.4966
UGCUGAAGCACCUUGAUGU	SAMD1	0.7599
ACUUGGUUACUGAAUAUUG	ESM1	0.001868
UUAUUAUCCUAAUUAUGCC	EED	0.003892
UUCUGUGCACUCCAAGAGC	VOPP1	1.985
UCGUUCUUCAACGUAAUCU	GNGT1	0.3719
AUACUUGUCUACUCUCAGU	NBPF22P	-1.948
AGAAGUAACUAUUGUUUUC	FLJ26245	1.008
AACUGGUUCAGGCAAGAGC	GDPD3	-0.9124
UGAGCAUCCAUACUAUCAC	P2RY14	-0.02664
UGAAUACAGAAAAACUCCC	LINC01220	1.168
UGUACUUUGAAUAAAAGGC	MGME1	-0.2102
AAGGCGUACAUCACCUUCC	DBNL	0.1023
UUUUUCUCAUUAUUCACUC	HPGD	1.471
AAUAAGGUAGGAGUCUUUC	RSAD2	0.08774
UUUUUCCGAACUUCUACAG	CEP120	-0.1872
AACUGUACUAAAAUCUGGG	PEX3	-0.08649
AAUCUUUACAAAGAGGCUG	ATP6V0B	-1.285
UAUGAUUCUGUUCACCUGC	LOC729224	0.05636
AACUGAACCAUGAUAAUGG	SLC25A48	-0.164
ACAGUAAUGACAAGAAGCC	ZSWIM7	0.4747
UCAGCGAUCUGAUUGUUGC	SLIT1	0.2738
AAACGGUAUGAUGUUAUCC	SLC12A6	-0.464
UGCCUUGCAAGGUUCGAAG	ZNF836	-0.03816
UGCGAAACAGCUGAAGACG	SOD3	-0.3472
UUCAUCGUGUCGUCGCUCC	IZUMO4	-0.4823
UUUCUGAAGACGCGAGGGC	NOP56	-0.03644
UAAUCGCUCAGUUAAGGUG	HHLA3	-0.04334
UACAGUCCAAUAAUUGUGC	OR1J4	-0.1025
UACGGUAAACUCGUUGCGC	EMC1	0.1665
AUACUCCUCAGCAUAGUUC	DUOXA1	0.8944
UAUAUUCUGCACACCAUGG	PRDM11	0.8038
UUGCUAGUAAUCGUCCUUC	GABRQ	-0.7781
UACACGUCACUCUUAGUGC	PSKH1	-0.5685
UUUGGUAAGACAUUGAGAG	LTV1	0.4326
UAUCAGGUGAAAAAUAGUC	MCPH1	-0.5406
UUUGCACCACCUUCUAUGC	C7orf25	0.44
AUCGUUAUAAAGGAGCAGG	ZPLD1	-1.242
UAGAUUAUAAGGUAUAGCC	LOC647264	-1.089

Source: PubChem BioAssay AID1159506 (NCATS, 2015).